The values that follow come from publication PMC4024641.

Sequences of proteins named here, by UniProt entry; tags and fusion partners are left off.
UniProt O74424: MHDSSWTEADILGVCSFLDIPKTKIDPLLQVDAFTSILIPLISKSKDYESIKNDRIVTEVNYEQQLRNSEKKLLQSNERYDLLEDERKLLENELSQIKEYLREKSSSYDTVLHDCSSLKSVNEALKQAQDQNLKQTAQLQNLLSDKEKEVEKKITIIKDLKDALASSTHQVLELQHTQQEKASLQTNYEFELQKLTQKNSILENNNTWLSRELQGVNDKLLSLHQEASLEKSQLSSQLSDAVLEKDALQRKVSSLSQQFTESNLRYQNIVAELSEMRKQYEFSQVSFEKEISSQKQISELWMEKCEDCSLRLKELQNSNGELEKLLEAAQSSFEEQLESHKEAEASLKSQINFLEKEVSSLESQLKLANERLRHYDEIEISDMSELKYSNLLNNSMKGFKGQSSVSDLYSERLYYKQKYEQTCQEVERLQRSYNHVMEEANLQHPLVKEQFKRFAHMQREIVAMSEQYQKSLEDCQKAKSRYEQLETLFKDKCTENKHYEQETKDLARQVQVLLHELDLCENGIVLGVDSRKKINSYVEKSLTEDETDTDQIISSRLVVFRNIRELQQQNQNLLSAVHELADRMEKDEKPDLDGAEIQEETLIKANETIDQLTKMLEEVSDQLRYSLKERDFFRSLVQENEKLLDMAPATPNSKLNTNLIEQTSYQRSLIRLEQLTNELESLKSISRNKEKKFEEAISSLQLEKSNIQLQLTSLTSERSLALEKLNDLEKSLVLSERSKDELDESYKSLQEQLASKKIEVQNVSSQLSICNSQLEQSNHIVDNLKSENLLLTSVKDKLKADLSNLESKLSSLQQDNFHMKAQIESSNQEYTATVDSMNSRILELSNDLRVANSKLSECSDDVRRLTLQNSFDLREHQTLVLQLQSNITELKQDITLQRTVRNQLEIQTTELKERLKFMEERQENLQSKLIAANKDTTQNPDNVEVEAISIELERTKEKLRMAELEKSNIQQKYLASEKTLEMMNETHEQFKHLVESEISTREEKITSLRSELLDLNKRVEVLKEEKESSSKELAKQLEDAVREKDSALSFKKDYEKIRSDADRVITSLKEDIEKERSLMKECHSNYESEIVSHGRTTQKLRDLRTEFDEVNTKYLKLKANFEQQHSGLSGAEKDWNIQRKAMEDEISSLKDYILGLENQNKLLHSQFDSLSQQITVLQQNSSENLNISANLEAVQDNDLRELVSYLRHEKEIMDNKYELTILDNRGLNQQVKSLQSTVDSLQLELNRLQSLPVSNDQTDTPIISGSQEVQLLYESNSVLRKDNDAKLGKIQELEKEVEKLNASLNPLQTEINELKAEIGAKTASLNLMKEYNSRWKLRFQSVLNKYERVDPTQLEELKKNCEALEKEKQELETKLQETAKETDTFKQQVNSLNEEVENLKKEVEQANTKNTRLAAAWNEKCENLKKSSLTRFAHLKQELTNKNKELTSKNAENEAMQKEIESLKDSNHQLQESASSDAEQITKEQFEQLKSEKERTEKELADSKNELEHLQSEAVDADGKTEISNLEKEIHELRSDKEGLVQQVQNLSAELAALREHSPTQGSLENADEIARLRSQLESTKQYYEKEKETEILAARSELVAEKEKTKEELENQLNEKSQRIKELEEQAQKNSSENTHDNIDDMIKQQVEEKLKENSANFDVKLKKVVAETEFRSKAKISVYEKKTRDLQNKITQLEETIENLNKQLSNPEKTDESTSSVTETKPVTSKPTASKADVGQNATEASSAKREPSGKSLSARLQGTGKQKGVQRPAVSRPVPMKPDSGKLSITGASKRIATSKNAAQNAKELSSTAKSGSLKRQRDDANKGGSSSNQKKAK

These are yes or no findings as the source states them, for the method shown. Binding seen in cells or lysates may run through a third protein. A yes stands for co-enrichment or nearness to the bait. Other partners may have been found. Tags and fused reporters may be left off the sequences shown.

Holding throughout (test): affinity purification with mass spectrometry; 3×FLAG- or 13×myc-tagged bait purified from S. pombe cell extract on α-FLAG (M2) or α-myc (9E10) antibody cross-linked to Protein G Dynabeads, 4°C for 3 h, IP buffer (20 mM HEPES pH 7.5, 100 mM NaCl, 5 mM MgCl2, 1 mM EDTA, 10% glycerol, 0.25% Triton X-100, 0.5 mM DTT); LC-MS/MS; Red1-3×FLAG also from iss10Δ, rmn1Δ and Mtl1 knockdown cells

The target of one assay is T1, Rmn1-13×myc (S. pombe) (UniProt Q9USP9).
T1 sequence: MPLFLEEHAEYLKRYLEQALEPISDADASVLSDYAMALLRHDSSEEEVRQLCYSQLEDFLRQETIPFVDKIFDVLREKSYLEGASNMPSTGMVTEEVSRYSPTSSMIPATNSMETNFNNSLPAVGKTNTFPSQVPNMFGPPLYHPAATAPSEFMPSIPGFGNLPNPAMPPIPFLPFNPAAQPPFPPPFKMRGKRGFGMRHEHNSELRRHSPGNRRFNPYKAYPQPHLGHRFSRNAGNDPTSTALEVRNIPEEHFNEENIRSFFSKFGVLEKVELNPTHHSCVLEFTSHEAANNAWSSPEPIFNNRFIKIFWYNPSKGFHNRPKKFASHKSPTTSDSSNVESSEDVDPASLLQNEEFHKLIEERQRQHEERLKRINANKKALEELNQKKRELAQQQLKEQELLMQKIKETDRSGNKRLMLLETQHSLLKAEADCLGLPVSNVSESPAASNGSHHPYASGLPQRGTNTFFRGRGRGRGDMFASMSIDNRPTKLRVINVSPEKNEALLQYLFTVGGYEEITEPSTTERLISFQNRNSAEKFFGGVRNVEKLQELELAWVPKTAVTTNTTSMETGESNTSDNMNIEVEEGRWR

The target of assay [1] is T2, Red5-3×FLAG (S. pombe), O74823.
T2 chain: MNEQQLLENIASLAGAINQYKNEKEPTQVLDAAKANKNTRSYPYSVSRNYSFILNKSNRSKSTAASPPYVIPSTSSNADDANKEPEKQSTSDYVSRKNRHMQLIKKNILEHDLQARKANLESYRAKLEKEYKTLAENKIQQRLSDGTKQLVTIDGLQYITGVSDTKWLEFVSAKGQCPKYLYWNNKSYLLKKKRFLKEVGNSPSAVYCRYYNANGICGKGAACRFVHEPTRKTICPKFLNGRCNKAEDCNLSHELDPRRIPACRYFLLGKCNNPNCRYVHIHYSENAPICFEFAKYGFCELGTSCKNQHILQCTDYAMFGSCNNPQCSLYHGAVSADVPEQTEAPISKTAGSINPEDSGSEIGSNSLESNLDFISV
Particulars: remark: other sources report otherwise.

Assay [2] deals with T3, Red1-3×FLAG (S. pombe), Q9UTR8.
T3 chain: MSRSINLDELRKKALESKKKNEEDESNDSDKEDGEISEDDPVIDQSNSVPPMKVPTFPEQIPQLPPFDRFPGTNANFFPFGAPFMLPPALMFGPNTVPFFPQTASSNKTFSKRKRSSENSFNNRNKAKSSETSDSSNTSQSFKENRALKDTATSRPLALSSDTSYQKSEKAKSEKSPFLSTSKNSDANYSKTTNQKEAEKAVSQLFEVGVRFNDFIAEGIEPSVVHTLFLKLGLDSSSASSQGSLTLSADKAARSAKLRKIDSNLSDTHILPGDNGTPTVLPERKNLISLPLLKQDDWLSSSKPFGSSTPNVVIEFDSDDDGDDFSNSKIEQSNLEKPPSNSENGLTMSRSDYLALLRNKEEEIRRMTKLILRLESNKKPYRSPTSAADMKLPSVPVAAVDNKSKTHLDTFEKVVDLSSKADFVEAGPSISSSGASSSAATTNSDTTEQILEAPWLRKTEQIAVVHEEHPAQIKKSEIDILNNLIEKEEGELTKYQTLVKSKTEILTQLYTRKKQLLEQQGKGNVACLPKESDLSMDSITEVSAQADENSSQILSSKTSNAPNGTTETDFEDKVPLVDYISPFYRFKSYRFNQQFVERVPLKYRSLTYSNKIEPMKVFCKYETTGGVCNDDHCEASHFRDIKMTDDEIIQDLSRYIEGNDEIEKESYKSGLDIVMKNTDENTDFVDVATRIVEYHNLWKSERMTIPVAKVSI
To be noted: remark: other sources report otherwise.

Regarding Nup211 (from UniProt O74424 1-1837), the binding result with Rmn1-13×myc (S. pombe) was “binds”.

B1: Red1-3×FLAG, Q9UTR8 1-712 (protein)
chain: T3 chain
In the case of B1, in assay [1], the binding result is given as “binds”.

B2: Mmi1, O74958 1-488 (protein)
chain: MSNTNFSTSRSSKSIPELPNLEALRSLWPPPSLNESGDTRSVWTTHTGEPVASSVLSTSGSNNFSSPLKRPAPESHDAPIGRRLMVDDPRLIKHGKYDFSRHCTDYGHSYEWPYFRSLRRESMLYHTSGSYPESQPPYSSYSTDAPHYYHAGSESSAYYDSRSRLHGIQPPPKRRTLSPPPRRLADPVVVGSSRYVEEEVYRRPPYTLASEVPSSASAYQAGYSSYPVRSSPQLSHEDTRHGIASSGSTRYPFVPANTRASHSPSLLEPYAHSLPSSVAPVGAYPEKSSYLLSNSSNDSASRKEKPKARASTPPPLNFSRASEHRNEKGERISMINPRVVLDENGISHRSRYFIMLCDNETAIAHAKKTSIWAVKKDSSKRISDAYKKASVYFIFVAQQTYNALGYAQVVSDLNSTELPFWSDSSHAGGVRIKWIKTCNLFSAEISEIVSHMDHGSEARDGMEMMYDEGSRLCTLINYAIMKRIGRDR
As to B2, the binding result in assay [1] was “binds”.

B3: Red5-3×FLAG, O74823 1-376 (protein)
chain: T2 chain
As for B3, the binding entry in assay [2] was “binds”.
